According to PMC5996148:
Where “and” joins values, the source holds several entries; their conditions need not be identical. Equal entries are not always repeated. This is one part of the list. For some assays here: The source does not settle which construct or isoform was used.

Legend:
Experiment in all cases: protein microarray (ProtoArray v5.0), streptavidin-Alexa Fluor 647
Conditions in all cases: 3'-biotin; 20 mM Tris (pH 7.5), 5 mM MgCl2, 100 mM KCl, 0.1% Tween-20, A/T-rich and random oligonucleotide blockers; temperature not stated; high values mean tight binding
DFNA5 (human) = tested on: DFNA5 (human)
DGCR6 (human) = tested on: DGCR6 (human)
DGUOK (human) = tested on: DGUOK (human)
DHDDS (human) = tested on: DHDDS (human)
DHX16 (human) = tested on: DHX16 (human)
DHX30 (human) = tested on: DHX30 (human)
DHX32 (human) = tested on: DHX32 (human)
DIABLO (human) = tested on: DIABLO (human)
DIP (human) = tested on: DIP (human)
[1] = tested on: DIS3-like exonuclease 1 (human)
DIXDC1 = molecular target: T1, DIXDC1 (UniProt Q155Q3)
T1 sequence: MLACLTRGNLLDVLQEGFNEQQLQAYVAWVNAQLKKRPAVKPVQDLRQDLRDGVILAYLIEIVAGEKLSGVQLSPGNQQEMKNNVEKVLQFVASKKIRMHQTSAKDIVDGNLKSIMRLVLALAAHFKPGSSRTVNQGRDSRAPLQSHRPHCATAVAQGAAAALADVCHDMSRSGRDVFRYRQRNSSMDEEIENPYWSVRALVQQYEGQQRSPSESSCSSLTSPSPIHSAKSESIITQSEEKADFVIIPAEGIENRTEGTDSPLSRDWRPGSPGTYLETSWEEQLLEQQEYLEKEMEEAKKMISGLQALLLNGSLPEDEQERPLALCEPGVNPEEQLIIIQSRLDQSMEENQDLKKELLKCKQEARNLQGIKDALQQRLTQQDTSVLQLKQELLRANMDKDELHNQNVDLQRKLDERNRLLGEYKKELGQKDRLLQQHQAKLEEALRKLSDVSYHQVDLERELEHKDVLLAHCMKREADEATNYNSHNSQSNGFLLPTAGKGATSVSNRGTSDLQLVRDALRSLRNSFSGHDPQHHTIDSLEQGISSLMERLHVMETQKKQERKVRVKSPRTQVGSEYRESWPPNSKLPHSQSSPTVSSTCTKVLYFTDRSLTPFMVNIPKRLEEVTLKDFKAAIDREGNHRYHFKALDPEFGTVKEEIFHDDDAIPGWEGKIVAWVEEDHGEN

DKFZP564O0823 (human) = tested on: DKFZP564O0823 (human)
DKFZp434B1231 (human) = tested on: DKFZp434B1231 (human)
DLEU1 (human) = tested on: DLEU1 (human)
DLK2 (human) = tested on: DLK2 (human)
DLX1 (human) = tested on: DLX1 (human)
DMD (human) = tested on: DMD (human)
DMKN (human) = tested on: DMKN (human)
DMPK (human) = tested on: DMPK (human)
DMRTC1 (human) = tested on: DMRTC1 (human)

Sequence: GGGAGGCTGAGGCAGG [G4-1 biotinylated (PQS2)]
- binding signal (DFNA5 (human)): -0.364 z-score
- binding signal (DGCR6 (human)): -0.355 z-score
- binding signal (DGUOK (human)): -0.31 z-score
- binding signal (DHDDS (human)): -0.296 z-score
- binding signal (DHX16 (human)): -0.279 z-score
- binding signal (DHX30 (human)): -0.287 z-score
- binding signal (DHX32 (human)): -0.336 z-score
- binding signal (DIABLO (human)): -0.35 z-score
- binding signal (DIP (human)): -0.329 z-score
- binding signal [1]: -0.312 z-score
- binding signal (DIXDC1): -0.328 z-score
- binding signal (DKFZP564O0823 (human)): -0.347 z-score
- binding signal (DKFZp434B1231 (human)): -0.31 z-score
- binding signal (DLEU1 (human)): -0.272 z-score
- binding signal (DLK2 (human)): -0.316 z-score
- binding signal (DLX1 (human)): -0.327 z-score
- binding signal (DMD (human)): -0.354 z-score and -0.36 z-score
- binding signal (DMKN (human)): -0.279 z-score
- binding signal (DMPK (human)): -0.342 z-score
- binding signal (DMRTC1 (human)): -0.327 z-score
